The text below walks through data of US20140206846A1.

In the experiment the target is T1, human VEGF (human), P15692.
T1 chain: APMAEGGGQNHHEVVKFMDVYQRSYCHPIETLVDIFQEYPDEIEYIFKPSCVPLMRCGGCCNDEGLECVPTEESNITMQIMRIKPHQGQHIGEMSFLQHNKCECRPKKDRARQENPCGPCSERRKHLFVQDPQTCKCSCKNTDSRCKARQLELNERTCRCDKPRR
Put plainly: Biacore SPR, Fab captured by anti-light chain antibody, antigen as analyte. The conditions noted are these: remark: other sources report otherwise. (In general: SPR reads the build-up and loss of mass on a sensor chip optically.)

No constants are given. Whether binding was seen depends on the method and setting. Some binding calls cover weakened binding; strength is not graded here.

B1: VH6L (bispecific antibody, V domains shown)
VL: NIQKTQSPSSLSASVGDRVTITCRALWHISSYLAWYQQKPGKAPKLLIYAASHLHYGVPSRFSGSGSGTDFTLTISSLQPEDFATYYCQQYSGLPYTFGQGTKVEIK
VH: YYQLVESGGGLVQPGGSLRLSCAADGFLFSGYAMSWIRQAPGKGLEWIGQISGSGGSTVYNYNVLGRFTISRDNSKNTLYLQMNSLRAEDTAVYYCARDTGYFDHWGQGTLVTVSS
B1: the binding result is “binds”.
